Weaker means in comparison with the reference protein, sequence or condition of that experiment. For part of these data: Protein sequences can lack the tags named with them.
Key:
[1] = target: hMMP-9 (gelatinase B) (Homo sapiens) (UniProt P14780); assay: SPR; settings: 2'-F pyrimidines, 2'-OH purines, aptamer 200 nM, purified recombinant protein, protein details: Calbiochem, variant of F3B
[2] = target: T1, hMMP-2 (gelatinase A) (Homo sapiens) (UniProt P08253); assay: filter binding; settings: 2'-F pyrimidines, 2'-OH purines; light signal; purified recombinant protein; label: 32P 5' end
T1 sequence (looked up, limits assumed): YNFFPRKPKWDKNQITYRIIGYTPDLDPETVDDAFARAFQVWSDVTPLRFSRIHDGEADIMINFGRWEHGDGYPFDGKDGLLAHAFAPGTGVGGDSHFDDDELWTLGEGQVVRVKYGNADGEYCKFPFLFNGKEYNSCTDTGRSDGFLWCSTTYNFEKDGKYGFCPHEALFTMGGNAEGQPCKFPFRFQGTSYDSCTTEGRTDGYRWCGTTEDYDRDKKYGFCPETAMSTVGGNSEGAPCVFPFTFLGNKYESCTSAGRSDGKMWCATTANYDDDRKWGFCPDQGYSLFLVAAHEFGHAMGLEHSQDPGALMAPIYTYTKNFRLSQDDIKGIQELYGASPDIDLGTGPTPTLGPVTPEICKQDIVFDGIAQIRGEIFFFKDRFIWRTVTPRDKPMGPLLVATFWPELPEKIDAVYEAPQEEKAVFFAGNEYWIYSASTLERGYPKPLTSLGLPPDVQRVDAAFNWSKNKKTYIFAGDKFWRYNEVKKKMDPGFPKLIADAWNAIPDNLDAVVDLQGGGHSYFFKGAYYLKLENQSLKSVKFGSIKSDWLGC

Sequences of proteins named here, by UniProt entry; tags and fusion partners are left off. Residues count along the entry.
UniProt P14780, 107-707: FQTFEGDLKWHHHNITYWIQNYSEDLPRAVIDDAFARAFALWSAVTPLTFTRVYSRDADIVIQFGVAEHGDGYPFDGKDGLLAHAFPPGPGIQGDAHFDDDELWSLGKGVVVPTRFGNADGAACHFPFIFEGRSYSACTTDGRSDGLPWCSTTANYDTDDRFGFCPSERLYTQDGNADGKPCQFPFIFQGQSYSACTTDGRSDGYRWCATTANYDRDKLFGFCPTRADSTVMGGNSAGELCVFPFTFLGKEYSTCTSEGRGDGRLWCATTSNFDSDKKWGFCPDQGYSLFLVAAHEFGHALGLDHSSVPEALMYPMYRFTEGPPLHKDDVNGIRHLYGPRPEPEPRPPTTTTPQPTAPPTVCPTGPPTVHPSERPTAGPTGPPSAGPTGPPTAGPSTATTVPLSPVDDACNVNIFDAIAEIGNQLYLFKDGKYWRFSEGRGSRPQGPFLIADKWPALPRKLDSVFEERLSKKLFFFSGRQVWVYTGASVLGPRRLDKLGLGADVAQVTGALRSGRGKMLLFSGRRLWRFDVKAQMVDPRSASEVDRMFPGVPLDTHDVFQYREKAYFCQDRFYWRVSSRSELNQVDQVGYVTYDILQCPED

CCCUGCCCUCACCCGUUAGCCUGAGCGCCCCG [F3C1]
binding result ([1]; SP buffer): binds more weakly

GCCCUCACCCGUUAGCCUGAGCGC [F3C2]
binding result ([1]; hardly yielded a SPR signal): binds more weakly

GGUUACCAGCCUUCACUGCCCUGCCCUCACCCGUUAGCCUGAGCGCCCCGCACCACGGUCGGUCACAC [F3]
binding result [2]: binds more weakly

— patent US20150337308
